Laboratory results from PubChem BioAssay AID200 (DTP/NCI, 2004).
The list shows only some results of the screen, not a fair sample: it is rich in T/C values a quarter to a half above the control, in often repeated tests (any T/C) and in doses without a T/C. Further doses and runs are listed elsewhere. T/C: endpoint of the treated group in % of that of the vehicle group. Some entries give survivors of the animals treated and no T/C: the source holds a T/C of zero for them, seemingly a mark for toxic or unscored doses. Some doses without a T/C left all or most animals alive at the check, yet need not have been tolerated: survival well below the control is almost never listed, so the zero probably covers shortened survival too. Counts of survivors are from the toxicity check (mostly the fifth day) where no day follows; animals may have died later. Schedules are NCI's codes, read here as Q, the interval in days (D) or hours (H), X, the number of doses. Some entries hold several experiments; the values are given in rising order. Where survival is the endpoint, this PubChem deposit counts one and a half times the control or more as active, and values a quarter to a half above the control carry no call in these data; other NCI protocols may use other cut-offs. Some T/C values are followed by the survivors on the day toxicity was checked, most often the fifth; where none is given, no animal had died by that day.

Test system: B6C3F1 mice, B16 melanoma ip, median survival T/C
Assay: NCI In Vivo Anticancer Drug Screen. Data for tumor model B16 Melanoma (intraperitoneal) in B6C3F1 mice
Settings: T/C endpoint: median survival time, schedule: Q01DX009 (ip), higher T/C = longer survival
In short: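 Mice bearing transplanted tumor were dosed with compound or vehicle, and survival was recorded. Activity is expressed as the treated-group measurement (T) divided by the vehicle control measurement (C).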

[1] = dose: 10.0 mg/kg/injection, vehicle: saline with Tween-80
[2] = dose: 25.0 mg/kg/injection, vehicle: Klucel (hydroxypropylcellulose) (HPC)
[3] = dose: 100.0 mg/kg/injection, vehicle: Klucel (hydroxypropylcellulose) (HPC)
[4] = dose: 200.0 mg/kg/injection, vehicle: Klucel (hydroxypropylcellulose) (HPC)
[5] = dose: 25.0 mg/kg/injection, vehicle: saline with Tween-80
[6] = dose: 50.0 mg/kg/injection, vehicle: saline with Tween-80
[7] = dose: 100.0 mg/kg/injection, vehicle: saline with Tween-80
[8] = dose: 1.25 mg/kg/injection, vehicle: saline with Tween-80
[9] = dose: 2.5 mg/kg/injection, vehicle: saline with Tween-80
[10] = dose: 200.0 mg/kg/injection, vehicle: saline with Tween-80
[11] = dose: 400.0 mg/kg/injection, vehicle: saline with Tween-80
[12] = dose: 12.5 mg/kg/injection, vehicle: Klucel (hydroxypropylcellulose) (HPC)
[13] = dose: 25.0 mg/kg/injection, vehicle: other
[14] = dose: 100.0 mg/kg/injection, vehicle: other
[15] = dose: 200.0 mg/kg/injection, vehicle: other
[16] = dose: 12.5 mg/kg/injection, vehicle: other
[17] = dose: 50.0 mg/kg/injection, vehicle: other
[18] = dose: 100.0 mg/kg/injection, vehicle: saline

Compound: C[n+]1cccc(NC(=O)c2ccc(NC(=O)C34CCC(C(=O)Nc5ccc(C(=O)Nc6ccc[n+](C)c6)cc5)(CC3)CC4)cc2)c1
- T/C [1]: 132 and 133 % of control
- survivor count (dose: 20.0 mg/kg/injection, vehicle: saline with Tween-80): 10 of 10
- survivor count (dose: 40.0 mg/kg/injection, vehicle: saline with Tween-80): 9 of 10 and 10 of 10
- survivor count (dose: 80.0 mg/kg/injection, vehicle: saline with Tween-80): 8 of 10
- survivor count (dose: 160.0 mg/kg/injection, vehicle: saline with Tween-80): 0 of 10

Compound: CN1CCc2c(c3ccccc3c3ccccc23)C1
- T/C [2]: 134 % of control
- survivor count [3]: 2 of 7
- survivor count [4]: 0 of 7
- survivor count (dose: 400.0 mg/kg/injection, vehicle: Klucel (hydroxypropylcellulose) (HPC)): 0 of 7

Compound: Cc1c(O)ccc(=O)n1O
- survivor count (dose: 256.0 mg/kg/injection, vehicle: saline with Tween-80): 9 of 10
- survivor count (dose: 512.0 mg/kg/injection, vehicle: saline with Tween-80): 6 of 10

Compound: CCCCCCCCCCCCCC#CC(=O)O
- survivor count [5]: 10 of 10
- survivor count [6]: 9 of 10 and 10 of 10
- survivor count [7]: 7 of 10 and 10 of 10

Compound: O=C1N[C@@H]2C(=C[C@H](O)[C@@H](O)[C@H]2O)c2cc3c(c(O)c21)OCO3
- survivor count [1]: 6 of 9

Compound: COC1CC(C)C(OC)c2cc(O)cc(c2O)NC(=O)/C(C)=C/C=C\C(C)C(OC(N)=O)/C(C)=C\C(C)C1OC (configuration not stated)
- T/C (dose: 0.62 mg/kg/injection, vehicle: other): 131 % of control
- T/C [8]: 132 % of control
- T/C [9]: 146 % of control
- T/C (dose: 5.0 mg/kg/injection, vehicle: other): 130 % of control
- survivor count [1]: 9 of 9

Compound: Cc1ccc([NH-])c([NH-])c1.[Cl][Pt+2][Cl]
- T/C [8]: 132 % of control
- T/C [9]: 137 % of control

Compound: COc1ccc(OC)c(Cc2cnc3nc(N)nc(N)c3c2C)c1
- survivor count (dose: 100.0 mg/kg/injection, vehicle: water): 7 of 10

Compound: CC(=Nc1ccccc1)C1=C(O)C(Cc2ccccc2)NC1=O (configuration not stated)
- T/C [7]: 132 % of control
- T/C [10]: 130 % of control
- survivor count [11]: 1 of 10

Compound: CC1Oc2cc3c(-c4c(O)cc(O)c5c(O)c6c(cc45)OC(C)C(C)C6=O)c(O)cc(O)c3c(O)c2C(=O)C1C (configuration not stated)
- survivor count (dose: 5.0 mg/kg/injection, vehicle: suspension in saline): 7 of 10 and 10 of 10
- survivor count (dose: 10.0 mg/kg/injection, vehicle: suspension in saline): 5 of 10 and 10 of 10
- survivor count (dose: 20.0 mg/kg/injection, vehicle: suspension in saline): 2 of 10
- survivor count (dose: 40.0 mg/kg/injection, vehicle: suspension in saline): 1 of 10
- survivor count (dose: 80.0 mg/kg/injection, vehicle: suspension in saline): 0 of 10

Compound: CC(C)CC(NC(=O)CNC(=O)CNC(=O)OCc1ccccc1)C(=O)O (configuration not stated)
- T/C (dose: 12.0 mg/kg/injection, vehicle: Klucel (hydroxypropylcellulose) (HPC)): 127 % of control

Compound: COC(C(=O)C(O)C(C)O)C1CC2C=C3C=C(OC4CC(OC5CC(O)C(OC)C(C)O5)C(OC(C)=O)C(C)O4)C(C)C(=O)C3=C(O)C2=C(O)C1OC1CC(OC2CC(OC3CC(C)(O)C(OC(=O)C(C)C)C(C)O3)C(O)C(C)O2)C(O)C(C)O1 (configuration not stated)
- T/C (dose: 31.2 micrograms/kg/injection, vehicle: saline): 139 % of control [8 of 10 alive]
- survivor count (dose: 125.0 micrograms/kg/injection, vehicle: saline): 10 of 10
- survivor count (dose: 250.0 micrograms/kg/injection, vehicle: saline): 1 of 10

Compound: COC(=O)Nc1cn2cc(C(=O)c3cccs3)ccc2n1
- T/C (dose: 6.0 mg/kg/injection, vehicle: other): 142 % of control
- T/C (dose: 12.0 mg/kg/injection, vehicle: other): 127 % of control
- T/C [12]: 138 and 142 % of control
- T/C [13]: 127 % of control
- T/C (dose: 50.0 mg/kg/injection, vehicle: Klucel (hydroxypropylcellulose) (HPC)): 139 % of control
- T/C [3]: 133 % of control
- survivor count [3]: 9 of 10 and 10 of 10
- T/C [14]: 143 % of control
- survivor count [4]: 5 of 10 and 10 of 10
- survivor count [15]: 10 of 10

Compound: CCCN(CCC)C(C)C(O)c1cc2c(c3ccccc13)CCCC2 (configuration not stated)
- T/C (dose: 0.19 mg/kg/injection, vehicle: Klucel (hydroxypropylcellulose) (HPC)): 127 % of control
- survivor count (dose: 0.78 mg/kg/injection, vehicle: Klucel (hydroxypropylcellulose) (HPC)): 9 of 10
- survivor count [12]: 10 of 10
- survivor count [2]: 10 of 10

Compound: CN(N=O)C(=O)N[C@@H](C=O)[C@@H](O)[C@H](O)[C@H](O)CO
- T/C [16]: 135 % of control
- T/C (dose: 12.5 mg/kg/injection, vehicle: saline): 110, 112, 114 [9 of 10 alive], 119 % of control
- T/C [13]: 135 % of control
- T/C (dose: 25.0 mg/kg/injection, vehicle: saline): 110, 112, 113, 115 % of control
- T/C [17]: 129 and 135 % of control
- T/C (dose: 50.0 mg/kg/injection, vehicle: saline): 115, 123, 138, 195 % of control
- T/C [14]: 139 % of control
- survivor count [14]: 10 of 10
- T/C [18]: 126, 133, 137 % of control
- survivor count [18]: 10 of 10
- survivor count [15]: 4 of 10 and 8 of 10
- survivor count (dose: 200.0 mg/kg/injection, vehicle: saline): 4 of 10, 9 of 10, 10 of 10

Compound: CCC(C)c1cnc(CC(C)C)c(=O)n1O (configuration not stated)
- survivor count [10]: 0 of 10
- survivor count [11]: 0 of 10

Compound: c1ccc2c3c(c4c(c2c1)CN(C1CCCCC1)CO4)OCN(C1CCCCC1)C3
- survivor count [16]: 0 of 10
- survivor count [13]: 0 of 10
- survivor count [17]: 0 of 10

Compound: Cc1cc2c(C(C)C)c(O)c(O)c(C=O)c2c(O)c1-c1c(C)cc2c(C(C)C)c(O)c(O)c(C=O)c2c1O
- survivor count (dose: 6.0 mg/kg/injection, vehicle: saline with Tween-80): 10 of 10
- survivor count (dose: 6.25 mg/kg/injection, vehicle: saline with Tween-80): 10 of 10
- survivor count (dose: 12.5 mg/kg/injection, vehicle: saline with Tween-80): 10 of 10
- survivor count [5]: 1 of 10
- survivor count [6]: 0 of 10
- survivor count [7]: 0 of 10
